In article doi:10.1101/2022.06.06.495046:
These are yes or no findings as the source states them, for the method shown. In cells and extracts the contact can be indirect. Here binding means that the protein was enriched with, or labelled near, the bait; the list need not be complete.

Amino acid sequences for entries named in this document (tags omitted).
UniProt P49721: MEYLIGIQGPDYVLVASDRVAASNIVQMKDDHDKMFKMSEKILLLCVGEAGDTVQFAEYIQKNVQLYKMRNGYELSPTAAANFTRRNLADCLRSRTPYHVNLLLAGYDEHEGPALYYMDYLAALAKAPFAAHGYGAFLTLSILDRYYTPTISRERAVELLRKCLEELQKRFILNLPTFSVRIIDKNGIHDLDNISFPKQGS

The binders below were run against PSMB2-HB (20S subunit PSMB2 tagged with TEV protease-cleavable hexahistidine-biotin) (human) (UniProt P49721) (assay: affinity purification with mass spectrometry).

| Binder | binding |
| --- | --- |
| UBFD1 (protein, UniProt O14562 1-309) MAAAGAPDGMEEPGMDTEAETVATEAPARPVNCLEAEAAAGAAAEDSGAARGSLQPAPAQPPGDPAAQASVSNGEDAGGGAGRELVDLKIIWNKTKHDVKFPLDSTGSELKQKIHSITGLPPAMQKVMYKGLVPEDKTLREIKVTSGAKIMVVGSTINDVLAVNTPKDAAQQDAKAEENKKEPLCRQKQHRKVLDKGKPEDVMPSVKGAQERLPTVPLSGMYNKSGGKVRLTFKLEQDQLWIGTKERTEKLPMGSIKNVVSEPIEGHEDYHMMAFQLGPTEASYYWVYWVPTQYVDAIKDTVLGKWQYF | binds |
| UBL4A (protein, UniProt P11441 1-157) MQLTVKALQGRECSLQVPEDELVSTLKQLVSEKLNVPVRQQRLLFKGKALADGKRLSDYSIGPNSKLNLVVKPLEKVLLEEGEAQRLADSPPPQVWQLISKVLARHFSAADASRVLEQLQRDYERSLSRLTLDDIERLASRFLHPEVTETMEKGFSK | binds |
| UBLCP1 (enzyme, UniProt Q8WVY7 1-318) MALPIIVKWGGQEYSVTTLSEDDTVLDLKQFLKTLTGVLPERQKLLGLKVKGKPAENDVKLGALKLKPNTKIMMMGTREESLEDVLGPPPDNDDVVNDFDIEDEVVEVENREENLLKISRRVKEYKVEILNPPREGKKLLVLDVDYTLFDHRSCAETGVELMRPYLHEFLTSAYEDYDIVIWSATNMKWIEAKMKELGVSTNANYKITFMLDSAAMITVHTPRRGLIDVKPLGVIWGKFSEFYSKKNTIMFDDIGRNFLMNPQNGLKIRPFMKAHLNRDKDKELLKLTQYLKEIAKLDDFLDLNHKYWERYLSKKQGQ | binds |
| USP15 (enzyme, UniProt Q9Y4E8 1-981) MAEGGAADLDTQRSDIATLLKTSLRKGDTWYLVDSRWFKQWKKYVGFDSWDKYQMGDQNVYPGPIDNSGLLKDGDAQSLKEHLIDELDYILLPTEGWNKLVSWYTLMEGQEPIARKVVEQGMFVKHCKVEVYLTELKLCENGNMNNVVTRRFSKADTIDTIEKEIRKIFSIPDEKETRLWNKYMSNTFEPLNKPDSTIQDAGLYQGQVLVIEQKNEDGTWPRGPSTPKSPGASNFSTLPKISPSSLSNNYNNMNNRNVKNSNYCLPSYTAYKNYDYSEPGRNNEQPGLCGLSNLGNTCFMNSAIQCLSNTPPLTEYFLNDKYQEELNFDNPLGMRGEIAKSYAELIKQMWSGKFSYVTPRAFKTQVGRFAPQFSGYQQQDCQELLAFLLDGLHEDLNRIRKKPYIQLKDADGRPDKVVAEEAWENHLKRNDSIIVDIFHGLFKSTLVCPECAKISVTFDPFCYLTLPLPMKKERTLEVYLVRMDPLTKPMQYKVVVPKIGNILDLCTALSALSGIPADKMIVTDIYNHRFHRIFAMDENLSSIMERDDIYVFEININRTEDTEHVIIPVCLREKFRHSSYTHHTGSSLFGQPFLMAVPRNNTEDKLYNLLLLRMCRYVKISTETEETEGSLHCCKDQNINGNGPNGIHEEGSPSEMETDEPDDESSQDQELPSENENSQSEDSVGGDNDSENGLCTEDTCKGQLTGHKKRLFTFQFNNLGNTDINYIKDDTRHIRFDDRQLRLDERSFLALDWDPDLKKRYFDENAAEDFEKHESVEYKPPKKPFVKLKDCIELFTTKEKLGAEDPWYCPNCKEHQQATKKLDLWSLPPVLVVHLKRFSYSRYMRDKLDTLVDFPINDLDMSEFLINPNAGPCRYNLIAVSNHYGGMGGGHYTAFAKNKDDGKWYYFDDSSVSTASEDQIVSKAAYVLFYQRQDTFSGTGFFPLDRETKGASAATGIPLESDEDSNDNDNDIENENCMHTN | binds |
| TXNL1 (protein, UniProt O43396 1-289) MVGVKPVGSDPDFQPELSGAGSRLAVVKFTMRGCGPCLRIAPAFSSMSNKYPQAVFLEVDVHQCQGTAATNNISATPTFLFFRNKVRIDQYQGADAVGLEEKIKQHLENDPGSNEDTDIPKGYMDLMPFINKAGCECLNESDEHGFDNCLRKDTTFLESDCDEQLLITVAFNQPVKLYSMKFQGPDNGQGPKYVKIFINLPRSMDFEEAERSEPTQALELTEDDIKEDGIVPLRYVKFQNVNSVTIFVQSNQGEEETTRISYFTFIGTPVQATNMNDFKRVVGKKGESH | binds |
